Laboratory results: PubChem BioAssay AID504774 (Drosophila RNAi Screening Center, 2011)
Screen: 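Knock-downs that shift viability of MMS-exposed cells relative to untreated ones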 (primary screen). Cell system: Drosophila Kc167 cells. Reagent: long dsRNA against Drosophila genes, about 0.25 µg dsRNA per well. Timing: about 6 days: 3 days knock-down, then 3 days with or without MMS. Conditions: methyl methanesulphonate 0.004% (w/v) for 3 days after knock-down. Detection: 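ATP-dependent luminescence as a measure of live cells in MMS-exposed wells, quantile normalised within each plate, with replicate values also given as a mean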. Direction: mean viability with MMS: higher = more surviving cells after MMS.
The deposit covers about 23,000 reagents; below is an unselected part of those that have a named target and a result. 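Values are quantile-normalised luminescence on an arbitrary scale; higher means more cells surviving MMS.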 Reagents against one gene are numbered here. Names joined by + are all predicted targets of the reagent. Not all columns of the deposit are shown. No sequences are given here.

mean viability with MMS, by gene and reagent
Ufsp2: #1 3.68e6
CG32243: #1 3.46e6
Kdm4B: #1 3.20e6
CG13856: #1 3.44e6
Or69a: #1 3.56e6
CG17202: #1 3.43e6; #2 2.89e6
unc79: #1 3.69e6
Drp1: #1 3.33e6
CG42700: #1 2.88e6; #2 3.66e6; #3 3.59e6
Timp: #1 3.63e6
Tsp47F: #1 3.41e6
Polr3H: #1 3.47e6
Sem1: #1 3.01e6
Chi: #1 3.46e6
Npc2f: #1 3.68e6
CG12995: #1 3.43e6
Ir60d: #1 3.61e6
CG6073: #1 3.69e6; #2 3.58e6
nsr: #1 3.58e6; #2 3.55e6
CG7407: #1 3.67e6
Sec22: #1 3.24e6
MED6: #1 3.35e6
brk: #1 2.99e6; #2 3.52e6
Grip: #1 3.11e6; #2 3.46e6
Lsm12a: #1 3.65e6
Gbs-76A: #1 3.47e6
CG31115: #1 3.46e6
CG31010: #1 3.59e6
nmdyn-D7: #1 3.60e6
CG14154: #1 3.46e6
Mon1: #1 3.64e6
Arc2: #1 3.43e6
CG33109: #1 3.47e6
SMC1: #1 3.80e6
CG5377: #1 3.37e6
HGTX: #1 3.58e6; #2 3.64e6
CG15025: #1 3.46e6
CG14568: #1 3.50e6
AOX4: #1 3.70e6
eEF2: #1 3.30e6
CG8323: #1 3.36e6
CG15343: #1 3.54e6
HINT1: #1 3.43e6
CG16922 (retired record): #1 3.13e6; #2 3.59e6
mRpL24: #1 3.23e6
Sugb: #1 3.60e6
bel: #1 3.71e6
CG8229 + CG33199: #1 3.90e6
Polr3A: #1 3.27e6
Fip1: #1 3.32e6
mbt: #1 3.37e6; #2 3.50e6
Teh4: #1 3.46e6
Iml1: #1 3.70e6
heix: #1 3.46e6
Cyp12a5: #1 3.68e6
arx: #1 3.55e6
ptc: #1 3.68e6; #2 3.52e6

Reformatted: 3 of the entries above
gene	dsRNA no.	mean viability with MMS
Tsp47F	1	3.41e6
Polr3H	1	3.47e6
Sem1	1	3.01e6
